Results are given in words; binding and its absence hold for the method and conditions named. Binding calls can cover weak binding; strength is not graded here. For some of these results: In cells and extracts the contact can be indirect.
Assays:
[1] = biological target: Solyc12g057060 (tomato (Solanum lycopersicum cv. Ailsa Craig)); experiment: two-hybrid; bait in pEG202 and prey in pJG4-5, co-transfected into yeast strain EGY48; LacZ reporter (40 ug/ml X-gal, 3 days at 28 °C) and Leucine reporter; repeated at least twice
[2] = biological target: Solyc07g065840 (tomato (Solanum lycopersicum cv. Ailsa Craig)) (UniProt P36181); experiment: as above
[3] = biological target: Solyc02g090430 (BiFC fusion) (tomato (Solanum lycopersicum cv. Ailsa Craig)); experiment: split reporter; BiFC with 35S-pBI-NBi and 35S-pBI-CBi fusions transiently co-expressed in N. benthamiana leaf cells by Agrobacterium-mediated infiltration; at least 48 hours; YFP fluorescence by confocal microscopy, DAPI counter-stain
[4] = biological target: Solyc11g069700 (tomato (Solanum lycopersicum cv. Ailsa Craig)); experiment: as above

Q: How did the binding [1] turn out when “Solyc05g005930 (from UniProt A0A3Q7GDG9)” was run?
A: The binding was “binds”.

Q: For “Solyc02g090430 (from UniProt A0A3Q7FAA8)”, which binding [2] is on record?
A: Its binding is “binds”.

Q: With “Solyc01g090750 (from UniProt A0A3Q7EK01)” as the substance, how does the binding [3] read?
A: Its binding is “binds”.

Q: With “Solyc06g082440 (from UniProt A0A3Q7H4T0)” as the substance, how does the binding [4] read?
A: The binding was “binds”.

From PMC4848565
